Measured values from PubChem BioAssay AID1671190 (National Center for Advancing Translational Sciences (NCATS), 2021).
Hit rate of the full screen: of about 580,000 compounds, about 6,100 (1.1%) were called active. Calls follow the shape of the dose curve; as a rule, active = well fitted inhibition curve with a large enough effect; inconclusive = small, poorly fitted or top-dose-only effect, or another doubt; inactive = no such curve, though single readings can be large or run the other way. The inconclusive results got no clear call from the source. Where the call is inconclusive, the potency comes from a doubtful curve fit.

Amino acid sequences for entries named in this document (tags omitted). A change or cut given only in a name is not applied to a line headed by its entry.
UniProt P18054: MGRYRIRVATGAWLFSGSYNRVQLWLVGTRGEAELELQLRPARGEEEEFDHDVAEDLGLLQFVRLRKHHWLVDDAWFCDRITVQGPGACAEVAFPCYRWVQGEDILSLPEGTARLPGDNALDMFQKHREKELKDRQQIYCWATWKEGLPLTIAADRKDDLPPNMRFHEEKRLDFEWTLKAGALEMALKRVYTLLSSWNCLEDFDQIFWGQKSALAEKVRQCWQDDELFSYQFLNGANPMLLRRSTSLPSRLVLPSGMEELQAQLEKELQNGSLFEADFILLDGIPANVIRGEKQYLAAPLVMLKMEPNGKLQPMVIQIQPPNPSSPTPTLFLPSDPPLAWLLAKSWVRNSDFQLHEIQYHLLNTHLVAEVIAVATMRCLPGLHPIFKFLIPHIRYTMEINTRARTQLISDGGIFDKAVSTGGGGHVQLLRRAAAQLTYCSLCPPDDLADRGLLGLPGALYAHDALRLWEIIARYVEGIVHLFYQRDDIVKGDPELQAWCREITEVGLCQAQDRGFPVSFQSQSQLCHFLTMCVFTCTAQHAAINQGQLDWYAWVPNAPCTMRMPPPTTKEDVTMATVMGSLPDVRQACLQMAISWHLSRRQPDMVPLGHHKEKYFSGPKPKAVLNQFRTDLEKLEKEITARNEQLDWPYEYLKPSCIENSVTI

Each molecule was assayed against Polyunsaturated fatty acid lipoxygenase ALOX12 (Homo sapiens) (UniProt P18054) (assay: Primary qHTS assay for inhibitors of human arachidonate 12S-lipoxygenase (ALOX12): Round 2). Conditions: purified 12hLO, xylenol orange hydroperoxide absorbance; series mostly up to 108 µM.
How it was run: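 Purified human 12hLO at 150 nM in 25 mM Hepes, 0.01% Triton X-100, pH 7.0, preincubated 15 min at room temperature with compound. Reaction started with 40 uM arachidonic acid, 30 min at room temperature. Hydroperoxide measured by Fe-xylenol orange, 573/405 nm absorbance ratio.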
Potency is read from the fitted curve at half-maximal effect.

SMILES	Potency
CCOC(=O)c1ccc(NC(=O)CSc2nnc(-c3cccc(Cl)c3)n2Cc2ccco2)cc1	inconclusive: 20 µM [inhibitor, full curve, poor fit]
Cc1ccc(C(C)NS(=O)(=O)c2cccs2)o1 (stereo unspecified)	inconclusive: 89.1 µM [inhibitor, single point]
CCCCNC(=S)N/N=C(/C)c1ccccn1	inconclusive: 50.1 µM [inhibitor, partial curve, poor fit]
O=C1NCCCC12CCN(Cc1cccc(C(F)(F)F)c1F)C2 (stereo unspecified)	inconclusive: 3.55 µM [inhibitor, partial curve, poor fit]
CC(C)(C)c1ccc(CSC2=Nc3ccccc3C3=NC(CC(=O)NCc4cccs4)C(=O)N23)cc1 (stereo unspecified)	inconclusive: 112 µM [inhibitor, partial curve, poor fit]
Cc1cc(C)cc(OCC(=O)Nc2cccc(S(=O)(=O)NC3=NCCC3)c2)c1	inconclusive: 50.1 µM [inhibitor, single point]
Cc1[nH]c2ccccc2c1N=Nc1cccc(C(=O)O)c1	inconclusive: 112 µM [inhibitor, partial curve, poor fit]
O=C1Nc2ccccc2CN(Cc2ccc(C(F)(F)F)cc2)C12CCNCC2	inconclusive: 12.6 µM [inhibitor, full curve]
O=C(O)CC(C(=O)OCC1CCCO1)N1CCOCC1 (stereo unspecified)	inconclusive: 15.8 µM [inhibitor, partial curve, poor fit]
N#C/C(=C/c1cccc(Oc2ccccc2)c1)C(N)=O	inconclusive: 56.2 µM [inhibitor, partial curve, poor fit]
CC(C)Cn1c(N)c(C(=O)COC(=O)CCNS(=O)(=O)c2ccccc2)c(=O)n(C)c1=O	inconclusive: 50.1 µM [inhibitor, partial curve, poor fit]
COc1cccc(C(c2nnnn2Cc2ccc(F)cc2)N2CCC(C(N)=O)CC2)c1OC (stereo unspecified)	inconclusive: 5.01 µM [inhibitor, full curve, poor fit]
O=C(NC[C@H]1O[C@@H](CC(=O)N2CCN(c3ccccn3)CC2)[C@H](O)[C@@H]1O)c1ccco1	inconclusive: 1.58 µM [inhibitor, full curve, poor fit]
c1ccc(COc2cccc(CN3CCN(c4ccccn4)CC3)c2)cc1	inconclusive: 0.562 µM [inhibitor, full curve, poor fit]
CC(=O)Nc1ccc(N=CC2=C(O)CC(C)(C)CC2=O)cc1	inconclusive: 112 µM [inhibitor, single point]
Cc1ccc(C(=O)NC(=C(Cl)Cl)S(=O)(=O)c2ccc(C)cc2)cc1	inconclusive: 50.1 µM [inhibitor, partial curve, poor fit]

3 compounds from above, ordered by number of heavy atoms, low to high.
SMILES	Potency
O=C(O)CC(C(=O)OCC1CCCO1)N1CCOCC1 (stereo unspecified)	inconclusive: 15.8 µM [inhibitor, partial curve, poor fit]
O=C1NCCCC12CCN(Cc1cccc(C(F)(F)F)c1F)C2 (stereo unspecified)	inconclusive: 3.55 µM [inhibitor, partial curve, poor fit]
CC(C)Cn1c(N)c(C(=O)COC(=O)CCNS(=O)(=O)c2ccccc2)c(=O)n(C)c1=O	inconclusive: 50.1 µM [inhibitor, partial curve, poor fit]
